Reference: the supplement of paper PMC10338343
± gives the standard deviation. The list shows a part of the results. Many of these values have a large error.

Test system: EfPiwi piRISC loaded with L1MC piRNA (26 nt)
Test: pre-steady-state target cleavage rate (min^-1); guide: L1MC piRNA 5'p-UAACUAAAUACUAUGCAAGCUGUAGG; MIWI and MILI are mouse PIWI proteins and EfPiwi is from a freshwater sponge; tags in brackets are library labels; higher = faster piRNA-guided slicing of the target
In short: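 For Cleave-'n-Seq, a transcribed, DNA-blocked target RNA library […] met 1 nM active affinity-purified piRISC with one synthetic guide at 33 °C for 0–8 or 0–960 min in HEPES–potassium acetate buffer, with or without 500 nM GTSF1 partner protein. Uncleaved targets were sequenced and normalised to depth and weakly complementary targets, with three trials pooled and k3 capped at 0.0001 min^-1. A burst-and-steady-state fit supplied the pre-steady-state cleavage rate.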

[1] = auxiliary factor: 500 nM Ephydatia muelleri Gtsf1
[2] = auxiliary factor: none (no Gtsf1)

Row | Sequence | pre-steady-state target cleavage rate [1] | pre-steady-state target cleavage rate [2]
1 | UCCUGGUUCUGCUUGCAUAGUAUUUAGUUA | 0.0355 ± 0.011 | 0.00563 ± 0.0047
2 | UCCUGGAACAGCUAGCAUAGUUUUUAGUUA | 0.00164 ± 0.0032 | 0.000334 ± 0.022
3 | UCCUGGAUGUGCUUGCUUAGUAUAUAGUUA | 0.00085 ± 0.0086 | 0.000532 ± 0.014
4 | UCCUGCUACUGCUAGCAUAGUAUUUAGUUA | 0.0129 ± 0.0034 | 0.000765 ± 0.0073
5 | UCCUGCUACAGGUUGCAAAGUAUUUAGUUA | 0.0385 ± 0.0096 | 0.00132 ± 0.0071
6 | UCCUGGUACAGCUUGCCUAGUAUUUAGUUA | 0.00475 ± 0.0026 | 0.000908 ± 0.011
7 | UCCUGGUACAGCUUGCAUAGUAUUUAGGUUA | 0.00216 ± 0.0033 | 0.000181 ± 0.039
8 | UCCUCCAACACCUUGCAUAGUAUUUAGUUA | 0.00954 ± 0.0038 | 0.000647 ± 0.0097
9 | UCCUGGUACAGUUUGCAUAGUAUUUAGUUA | 0.00421 ± 0.0025 | 0.000612 ± 0.021
10 | UCCUGGAUGAGCUUGCGUAGUAUUUAGUUA | 0.00425 ± 0.0038 | 0.00294 ± 0.0056
11 | UCCUGGUACAGCUUGCAUAGUAUUUGGUUA | 0.00525 ± 0.002 | 0.000319 ± 0.033
12 | UCCUGGUUCACCUUGCAUAGUAUUUAGUUA | 0.0052 ± 0.0033 | 0.00104 ± 0.01
13 | UCCUGGAUGUCGAACGUAUGUCUUUAGUUA | < 0.0001 | < 0.0001
14 | UCCUGGUACUGCUAGCAUAGUAUUUAGUUA | 0.00467 ± 0.0022 | 0.000487 ± 0.019
15 | UCCUGGUACAGCUUGCAUAGUAUGUUAGUUA | 0.00488 ± 0.0028 | 0.00115 ± 0.0079
16 | UCCUCCUACAGCUUGCAAGUAUUUAGUUA | 0.00641 ± 0.0026 | 0.000999 ± 0.0064
17 | UCCUGGAUGAGCUUGCAUAGUAUGUUAGUUA | 0.00879 ± 0.0036 | 0.0026 ± 0.0046
18 | UCCUGGAUGUGCAUUGCAUAGUAUUUAGUUA | 0.0129 ± 0.0042 | 0.00184 ± 0.0058
19 | UCCUGCUUCAGCUUGCAUAGAAUUUAGUUA | 0.00544 ± 0.0015 | 0.00271 ± 0.0045
20 | UCCUGGAUGAGCAAGCAUAGUAUUUAGUUA | 0.0118 ± 0.0048 | 0.00114 ± 0.0079

A section from further up:
Row | Sequence | pre-steady-state target cleavage rate [1] | pre-steady-state target cleavage rate [2]
18 | UCCUGGAUGUGCAUUGCAUAGUAUUUAGUUA | 0.0129 ± 0.0042 | 0.00184 ± 0.0058
19 | UCCUGCUUCAGCUUGCAUAGAAUUUAGUUA | 0.00544 ± 0.0015 | 0.00271 ± 0.0045
